Some peptides are written in HELM: one residue between dots, names in brackets for other building blocks, links after the first $.
Assay: solid-phase peptide synthesis
Settings: whole synthesis, Nexera UHPLC (Shimadzu), scale of the general procedure 0.5 mmol

PEPTIDE1{C.P.K.I.L.K.K.C.R.R.D.S.D.C.P.G.A.C.I.C.R.Y.[dW].K.V.C.G.Y.H.L.N.Q.P.F.G}$PEPTIDE1,PEPTIDE1,1:R3-18:R3|PEPTIDE1,PEPTIDE1,8:R3-20:R3|PEPTIDE1,PEPTIDE1,14:R3-26:R3|PEPTIDE1,PEPTIDE1,1:R1-35:R2$$$V2.0
final HPLC purity: >95%
